Experimental data as given in article PMC8478917.
Results are given in words; binding and its absence hold for the method and conditions named. Binding seen in cells or lysates may run through a third protein. Some results given as binding are weak or reduced against the parent protein; the word gives no strength.

The chains behind the UniProt entries cited, without tags or fusion partners.
UniProt Q5SYE7: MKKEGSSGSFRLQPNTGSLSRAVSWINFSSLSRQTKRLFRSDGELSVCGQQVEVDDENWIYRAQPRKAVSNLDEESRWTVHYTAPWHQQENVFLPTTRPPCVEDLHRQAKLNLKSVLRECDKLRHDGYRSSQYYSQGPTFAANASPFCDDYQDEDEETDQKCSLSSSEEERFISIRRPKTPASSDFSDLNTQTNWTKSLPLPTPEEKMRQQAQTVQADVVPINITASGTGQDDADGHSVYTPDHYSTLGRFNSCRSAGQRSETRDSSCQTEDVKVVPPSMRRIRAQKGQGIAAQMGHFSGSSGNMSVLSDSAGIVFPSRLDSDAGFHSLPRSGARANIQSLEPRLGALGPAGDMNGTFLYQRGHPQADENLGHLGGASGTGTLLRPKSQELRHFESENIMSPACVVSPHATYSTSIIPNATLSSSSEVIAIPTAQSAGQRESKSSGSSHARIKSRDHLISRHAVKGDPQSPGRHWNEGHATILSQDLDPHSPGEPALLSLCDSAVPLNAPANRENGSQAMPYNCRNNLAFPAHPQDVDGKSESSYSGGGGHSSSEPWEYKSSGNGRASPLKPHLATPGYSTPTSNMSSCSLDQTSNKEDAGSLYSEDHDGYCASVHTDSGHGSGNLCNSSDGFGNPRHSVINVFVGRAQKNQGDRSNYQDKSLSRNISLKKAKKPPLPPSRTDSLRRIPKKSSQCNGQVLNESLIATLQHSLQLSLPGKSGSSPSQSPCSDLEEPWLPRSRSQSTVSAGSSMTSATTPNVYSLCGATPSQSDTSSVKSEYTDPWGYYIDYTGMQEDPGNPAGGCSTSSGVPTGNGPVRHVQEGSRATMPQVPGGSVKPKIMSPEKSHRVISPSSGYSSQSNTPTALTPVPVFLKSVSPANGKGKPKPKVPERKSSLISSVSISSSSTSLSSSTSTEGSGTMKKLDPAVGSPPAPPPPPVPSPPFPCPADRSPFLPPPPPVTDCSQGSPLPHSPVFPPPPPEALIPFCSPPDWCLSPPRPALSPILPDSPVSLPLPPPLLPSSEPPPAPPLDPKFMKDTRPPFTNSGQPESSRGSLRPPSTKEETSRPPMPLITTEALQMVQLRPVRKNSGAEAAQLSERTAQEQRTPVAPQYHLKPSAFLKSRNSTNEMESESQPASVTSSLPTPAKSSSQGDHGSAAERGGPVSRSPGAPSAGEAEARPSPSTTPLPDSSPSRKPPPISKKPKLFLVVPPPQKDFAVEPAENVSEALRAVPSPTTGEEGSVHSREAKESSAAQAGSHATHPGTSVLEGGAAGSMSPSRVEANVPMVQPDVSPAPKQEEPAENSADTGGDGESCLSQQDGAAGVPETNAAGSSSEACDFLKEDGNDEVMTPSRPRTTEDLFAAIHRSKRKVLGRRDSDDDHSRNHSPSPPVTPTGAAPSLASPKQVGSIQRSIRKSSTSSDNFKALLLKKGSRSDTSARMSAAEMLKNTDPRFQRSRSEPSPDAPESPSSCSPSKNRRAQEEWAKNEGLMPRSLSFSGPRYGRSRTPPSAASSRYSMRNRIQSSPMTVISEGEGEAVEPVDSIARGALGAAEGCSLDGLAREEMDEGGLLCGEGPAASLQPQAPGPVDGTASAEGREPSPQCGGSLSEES
UniProt Q8IZP0: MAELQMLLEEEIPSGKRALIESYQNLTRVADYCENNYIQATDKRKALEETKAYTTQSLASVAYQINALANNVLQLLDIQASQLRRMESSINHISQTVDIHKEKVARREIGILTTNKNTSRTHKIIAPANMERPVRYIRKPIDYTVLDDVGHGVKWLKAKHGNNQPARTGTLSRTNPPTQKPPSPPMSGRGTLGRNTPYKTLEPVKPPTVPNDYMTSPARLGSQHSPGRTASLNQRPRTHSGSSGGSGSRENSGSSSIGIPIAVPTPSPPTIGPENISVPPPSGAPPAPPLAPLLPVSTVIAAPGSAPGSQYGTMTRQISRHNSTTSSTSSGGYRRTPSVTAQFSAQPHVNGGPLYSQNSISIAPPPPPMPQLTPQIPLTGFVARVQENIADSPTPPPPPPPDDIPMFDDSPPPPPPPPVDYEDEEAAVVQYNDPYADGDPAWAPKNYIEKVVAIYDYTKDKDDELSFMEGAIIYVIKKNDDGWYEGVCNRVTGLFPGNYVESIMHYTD

Target: endogenous NHSL1 of MCF10A cells (human (endogenous in MCF10A)) (UniProt Q5SYE7)
Test: co-IP; endogenous NHSL1 immunoprecipitated with polyclonal antibody 4457 from MCF10A (Abi1 blot) and B16-F1 (Scar/WAVE2 blot) lysates; non-immune rabbit IgG as control

binding: binds
Substance: endogenous Abi1 of MCF10A cells (from UniProt Q8IZP0 1-508)
